Results published in US20190276551A1.
No constants are given. Whether binding was seen depends on the method and setting. Some results given as binding are weak or reduced against the parent protein; the word gives no strength.

Sequences of proteins named here, by UniProt entry; tags and fusion partners are left off. A change or cut given only in a name is not applied to a line headed by its entry.
UniProt P28907: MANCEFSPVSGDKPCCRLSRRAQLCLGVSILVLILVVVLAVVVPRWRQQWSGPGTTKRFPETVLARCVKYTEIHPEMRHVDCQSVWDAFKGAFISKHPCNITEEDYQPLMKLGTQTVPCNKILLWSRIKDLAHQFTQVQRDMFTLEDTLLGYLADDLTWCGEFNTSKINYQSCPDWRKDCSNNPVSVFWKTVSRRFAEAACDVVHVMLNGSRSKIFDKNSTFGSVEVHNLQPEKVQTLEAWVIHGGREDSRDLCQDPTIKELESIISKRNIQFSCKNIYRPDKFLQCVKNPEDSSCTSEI

What was measured:
[1] = target: soluble, non-glycosylated, recombinant human CD38 (human) (UniProt P28907); experiment: micro-scale thermophoresis
[2] = target: human CD38 on cells (human) (UniProt P28907); experiment: binding assays of Example 4

B1: MU397 (VHH)
VHH: DVQLQASGGGLVQAGGSLRLSCAPSGGTFDAYDMGWYREAPGKKRQFVAAVRSGGGTTRYADSVKGRFTISRDDAKDTVFLQMNSLKPEDTALYYCAADRWGLFSLSIATPTHWGQGTQVTVSS
[1]
  binding: binds

B2: WF139 (VHH)
VHH: SGGGLVQAGGSQRLSCAASGHTFSSYSMAWFRQAPGKEREFVAANIMSGTNTYYADSVRGRFTMSRDIAKNTVYLQMNSLKEEDTALYYCAAADRFRGWATWRDDPDQYDYWDQGTQVTVSS
[2]
  binding: binds
